Primary screen of a compound library

Chains of the proteins cited; added tags and fusions are not shown. Residues count along the entry.
UniProt Q4DA54, 1-478: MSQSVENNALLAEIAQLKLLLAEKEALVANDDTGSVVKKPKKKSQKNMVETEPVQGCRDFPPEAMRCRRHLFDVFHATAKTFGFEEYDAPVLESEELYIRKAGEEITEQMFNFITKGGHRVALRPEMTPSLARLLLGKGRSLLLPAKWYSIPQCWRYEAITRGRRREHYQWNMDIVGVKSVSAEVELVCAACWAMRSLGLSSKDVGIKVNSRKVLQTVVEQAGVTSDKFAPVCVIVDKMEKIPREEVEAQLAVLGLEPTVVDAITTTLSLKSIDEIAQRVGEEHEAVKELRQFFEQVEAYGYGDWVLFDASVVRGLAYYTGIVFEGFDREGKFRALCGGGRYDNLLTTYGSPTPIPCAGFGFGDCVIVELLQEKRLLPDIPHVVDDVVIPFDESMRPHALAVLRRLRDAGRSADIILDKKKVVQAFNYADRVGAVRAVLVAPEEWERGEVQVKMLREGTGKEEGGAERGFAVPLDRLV
UniProt P9WNZ1, whole entry: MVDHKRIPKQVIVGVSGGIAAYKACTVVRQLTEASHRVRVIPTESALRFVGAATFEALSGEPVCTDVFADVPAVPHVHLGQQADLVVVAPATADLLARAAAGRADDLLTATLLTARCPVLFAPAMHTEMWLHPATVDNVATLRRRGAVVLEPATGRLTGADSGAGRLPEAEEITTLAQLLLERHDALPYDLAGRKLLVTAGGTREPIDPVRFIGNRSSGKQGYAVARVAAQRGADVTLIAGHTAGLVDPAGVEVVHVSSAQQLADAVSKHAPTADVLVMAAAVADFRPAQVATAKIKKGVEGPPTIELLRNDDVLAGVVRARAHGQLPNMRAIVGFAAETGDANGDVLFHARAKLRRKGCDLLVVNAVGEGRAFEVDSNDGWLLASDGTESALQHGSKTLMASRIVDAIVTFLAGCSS

Data taken from ChEMBL document CHEMBL3988442, “University of Dundee, Small-Polar-MMV Screening Library” (2021).

TcHisRS: 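Enzyme assay of histidyl-tRNA synthetase; the read-out is not stated. Target: Histidine-tRNA ligase, Trypanosoma cruzi CL Brener (UniProt Q4DA54). Tested at 30 µM. The record gives no direction; compounds that gave an IC50 in retests scored well above the rest, so higher reads as stronger inhibition. Of about 69,000 compounds tested this way, about 31 (0.045%) reached 50% or more in at least one test.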
CoaBC: 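Enzyme assay of CoaBC with a phosphate dye (Biomol Green) read at 650 nm. Target: Coenzyme A biosynthesis protein CoaBC, Mycobacterium tuberculosis (UniProt P9WNZ1). Tested at 30 µM. Direction is inferred from only a few compounds that gave an IC50; most scored high, so higher reads as stronger inhibition. Most strong results did not repeat in a second test. About 67,000 compounds were tested under these conditions; 0.06% (about 40) showed 50% or more at least once.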

Each number is a percent effect as filed. The record does not define 0% and 100%; most values in the screen are far below 50% and negative numbers occur (in some assays of this library far below -100). This is an unselected part of the compounds tested.

SMILES	TcHisRS	CoaBC
O=C(NCCCn1cncn1)N1CCCC(N2CCCC2)C1 (stereo not shown)	1.901%	7.713%
CSc1cccc(CN(C)C(=O)Cn2ncc(N3CCCC3)cc2=O)c1	5.6%	8.442%
CCN1CCCC(c2c(-c3ccccc3)ncn2CC(N)=O)C1 (stereo not shown)	-0.5291%	-23.63%
O=C(CCNC(=O)c1cccc(OC(F)F)c1)Nc1cccnc1	1%	2.767%
CCC(=O)N1CCN(C)C(=O)C(Cc2ccccc2-c2cccs2)C1 (stereo not shown)	7.143%	2.098%
CC(C)(C)CC(=O)N1CCC(c2nn(CCN)c3nccnc23)C1 (stereo not shown)	0.7491%	-0.1239%
COc1cccc(CC(=O)NCc2cnc(C)nc2C2CCCN2C)c1 (stereo not shown)	3.333%	4.843%
Cc1nc(Nc2ncc(C)s2)cc(C2CCCN2)n1 (stereo not shown)	6.061%	-1.051%
CCc1ccc(C2c3nc[nH]c3CCN2Cc2nccn2CC)nc1 (stereo not shown)	-0.9901%	0.3645%
CCn1nc(C)c2nnn(CC(=O)Nc3ccccc3F)c(=O)c21	5.217%	3.926%
CCn1nc2c(cc1=O)CN(Cc1nc3ccccc3c(=O)[nH]1)CC2	4.132%	4.904%
CS(=O)(=O)N1CCO[C@@H]2CN(Cc3ccc(F)cc3)C[C@@H]2C1	7.527%	6.131%
CCCS(=O)(=O)NC(C)C(=O)NCc1ccc(N2CCN(C)CC2)nc1 (stereo not shown)	2.035%	-3.842%
CC(C)c1n[nH]c(C2CN(C(=O)CCCn3cccn3)CCO2)n1 (stereo not shown)	2.439%	-1.266%
CC(C)CCN1C(=O)C2(NC(=O)c3ccccc3O2)c2ccccc21 (stereo not shown)	6.25%	-2.992%
CN1CCCc2sc(C(=O)NCc3cccnc3)nc21	6.468%	8.055%
O=C(CCc1cc(F)ccc1F)NS(=O)(=O)c1ccc2c(c1)OCCO2	-0.5634%	-2.926%
Cc1nc(N(C)C)nc(-c2cccc(-c3ccn(CCCF)n3)c2)c1C	13.86%	8.981%
O=C1N(Cc2ccc(F)c(F)c2)CCCC12CCN(C1CCSCC1)C2 (stereo not shown)	16.18%	-19.64%
Cc1nn(C)c(N(C)C)c1CNCc1cccc(Cl)c1	-3.488%	-9.871%
O=C(c1cscn1)N1CCc2[nH]nc(Nc3ccccc3)c2C1	5.65%	-12.35%
CN(C)C(=O)[C@H]1C[C@H]2OCC[C@H]2N(Cc2ccc(F)cc2)C1	7.882%	6.091%
Cn1cnc2cc(C(=O)NS(=O)(=O)c3ccc(F)cc3)ccc21	4.202%	1.613%
CCn1nc(C)c(C(=O)N2C[C@@H](CN(C)CCOC)[C@@H](CO)C2)c1C	15.08%	0%
CCc1ccc(CN2CCN(c3ccc(Cl)nn3)CC2)nc1	10.33%	3.306%
CC(C)COC(C)C(=O)N1CCCCC1 (stereo not shown)	5.155%	-3.736%
Cn1nnnc1SCCNC(=O)C1CCN(C(=O)C2CCCC2)CC1	2.703%	11.82%
COCc1cc(NCCc2ccc(F)cc2)n2nccc2n1	6.612%	-5.33%
O=C(C1CCOCC1)N1CC[C@@H](O)[C@@H]1Cc1ccccc1	-105.3%	-11.76%
COCCC1(C(=O)NCCc2nncn2C2CC2)CCC1	0%	6.016%
Cc1cnc(C(=O)N2CCC3(CCN(Cc4ccccn4)C3=O)C2)cn1 (stereo not shown)	9.045%	4.685%
CC(C1CCN(Cc2cnc(-c3cccs3)nc2)CC1)N(C)C (stereo not shown)	12.65%	6.22%
O=C(c1ccncc1)N1CCCC2(COCCN(c3ccccc3)C2)C1 (stereo not shown)	3.825%	2.96%
Cc1nc(CN2CCc3ncnc(-c4ccc(F)cc4)c3CC2)cs1	3.867%	6.427%
Cc1nc(-c2ccc(Cl)s2)sc1C(=O)NCCCC(N)=O	3.207%	1.619%
Cn1cc(CNCC2(O)CCCN(Cc3ccc(F)c(F)c3)C2=O)cn1 (stereo not shown)	7.623%	1.015%
Cn1cc(-c2cnc(N3CCOCC3)nc2)cc1C(=O)NCCC#N	4.902%	3%
COc1ccc(-c2csc(N)c2C#N)cc1	1.754%	-0.7576%
COc1cccc(CN2CCCC(c3nn(C)c4nccnc34)C2)c1 (stereo not shown)	4.255%	2.451%
CCCc1nc(N2CCCC(CCOC)C2)c2cnn(C)c2n1 (stereo not shown)	2.97%	-1.928%
Cc1cnn(CC2CN(Cc3nc4cccnc4[nH]3)CCO2)c1 (stereo not shown)	0.8746%	2.611%

Repeated from the top, 2 entries:

{"smiles": "O=C(NCCCn1cncn1)N1CCCC(N2CCCC2)C1", "stereo": "stereo not shown", "TcHisRS": 1.901, "CoaBC": 7.713}
{"smiles": "CSc1cccc(CN(C)C(=O)Cn2ncc(N3CCCC3)cc2=O)c1", "TcHisRS": 5.6, "CoaBC": 8.442}